Results taken from paper PMC5101391.
These are yes or no findings as the source states them, for the method shown. In cells and extracts the contact can be indirect. Some results given as binding are weak or reduced against the parent protein; the word gives no strength.

Legend:
[1] = target: T1, TRAF-interacting protein (TRIP), endogenous in RA-FLS-Ctrl cells (human (endogenous in RA-FLS)) (UniProt Q9BWF2); experiment: co-IP; extracts of RA-FLS (RA-FLS-Ctrl or RA-FLS-TRIP), unstimulated or stimulated with TNFα (100 ng/mL) for various times, with proteasome inhibitor Mg132; immunoprecipitation with anti-TRIP or control IgG and protein G Plus-Agarose for 5 hours, immunoblot for TAK1
T1 sequence: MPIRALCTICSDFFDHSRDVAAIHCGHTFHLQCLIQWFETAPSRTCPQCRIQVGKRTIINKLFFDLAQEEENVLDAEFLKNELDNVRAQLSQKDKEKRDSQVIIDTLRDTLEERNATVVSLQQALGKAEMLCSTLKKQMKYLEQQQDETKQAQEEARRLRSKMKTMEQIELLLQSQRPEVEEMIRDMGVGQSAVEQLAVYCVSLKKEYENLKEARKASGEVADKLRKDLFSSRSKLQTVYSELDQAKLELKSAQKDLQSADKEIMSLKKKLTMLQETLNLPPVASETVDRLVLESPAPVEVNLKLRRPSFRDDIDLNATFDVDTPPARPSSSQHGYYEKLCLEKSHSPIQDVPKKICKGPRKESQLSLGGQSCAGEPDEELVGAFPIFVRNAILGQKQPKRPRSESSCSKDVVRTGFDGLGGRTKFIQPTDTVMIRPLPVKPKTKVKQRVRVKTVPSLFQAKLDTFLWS

[2] = target: T2, TRAF-interacting protein (TRIP), wild type, stably overexpressed in RA-FLS by lentivirus (UniProt Q9BWF2); experiment: as above
T2 sequence: T1 sequence

B1: transforming growth factor β-activated kinase 1 (TAK1) (protein, UniProt O43318 1-606)
chain: MSTASAASSSSSSSAGEMIEAPSQVLNFEEIDYKEIEVEEVVGRGAFGVVCKAKWRAKDVAIKQIESESERKAFIVELRQLSRVNHPNIVKLYGACLNPVCLVMEYAEGGSLYNVLHGAEPLPYYTAAHAMSWCLQCSQGVAYLHSMQPKALIHRDLKPPNLLLVAGGTVLKICDFGTACDIQTHMTNNKGSAAWMAPEVFEGSNYSEKCDVFSWGIILWEVITRRKPFDEIGGPAFRIMWAVHNGTRPPLIKNLPKPIESLMTRCWSKDPSQRPSMEEIVKIMTHLMRYFPGADEPLQYPCQYSDEGQSNSATSTGSFMDIASTNTSNKSDTNMEQVPATNDTIKRLESKLLKNQAKQQSESGRLSLGASRGSSVESLPPTSEGKRMSADMSEIEARIAATTAYSKPKRGHRKTASFGNILDVPEIVISGNGQPRRRSIQDLTVTGTEPGQVSSRSSSPSVRMITTSGPTSEKPTRSHPWTPDDSTDTNGSDNSIPMAYLTLDHQLQPLAPCPNSKESMAVFEQHCKMAQEYMKVQTEIALLLQRKQELVAELDQDEKDQQNTSRLVQEHKKLLDENKSLSTYYQQCKKQLEVIRSQQQKRQGTS
For B1, the binding [1] was “binds weakly” and the binding [2] was “binds”.
